Data published in paper PMC6731274.
No constants are given. Whether binding was seen depends on the method and setting. In cells and extracts the contact can be indirect. Some entries that bind do so weakly or less than the wild type.

Biological target: myc-tagged BARS expressed in HeLa cells (UniProt Q9Z2F5)
Experiment: co-IP; HeLa cells transfected with construct as indicated; immunoprecipitation for the myc tag, immunoblotting for ALDH7A1

binding: binds
B1: ALDH7A1 in HeLa cells (enzyme, UniProt P49419 27-539)
chain: AFMSTLLINQPQYAWLKELGLREENEGVYNGSWGGRGEVITTYCPANNEPIARVRQASVADYEETVKKAREAWKIWADIPAPKRGEIVRQIGDALREKIQVLGSLVSLEMGKILVEGVGEVQEYVDICDYAVGLSRMIGGPILPSERSGHALIEQWNPVGLVGIITAFNFPVAVYGWNNAIAMICGNVCLWKGAPTTSLISVAVTKIIAKVLEDNKLPGAICSLTCGGADIGTAMAKDERVNLLSFTGSTQVGKQVGLMVQERFGRSLLELGGNNAIIAFEDADLSLVVPSALFAAVGTAGQRCTTARRLFIHESIHDEVVNRLKKAYAQIRVGNPWDPNVLYGPLHTKQAVSMFLGAVEEAKKEGGTVVYGGKVMDRPGNYVEPTIVTGLGHDASIAHTETFAPILYVFKFKNEEEVFAWNNEVKQGLSSSIFTKDLGRIFRWLGPKGSDCGIVNVNIPTSGAEIGGAFGGEKHTGGGRESGSDAWKQYMRRSTCTINYSKDLPLAQGIKFQ
